Reference: paper PMC9763423
Results are given in words; binding and its absence hold for the method and conditions named. Binding seen in cells or lysates may run through a third protein. Binding calls can cover weak binding; strength is not graded here.

Molecular target: Akt (human (endogenous in CAL27R))
Test: co-IP; endogenous TRAF4 and Akt, CAL27R cells treated with/without IR (2 Gy) for 20 min; lysate in IP buffer, primary antibody and Protein A/G agarose beads, immunoblot

binding: binds
B1: TNF receptor-associated factor 4 (TRAF4) (protein, UniProt Q9BUZ4 1-470)
chain: MPGFDYKFLEKPKRRLLCPLCGKPMREPVQVSTCGHRFCDTCLQEFLSEGVFKCPEDQLPLDYAKIYPDPELEVQVLGLPIRCIHSEEGCRWSGPLRHLQGHLNTCSFNVIPCPNRCPMKLSRRDLPAHLQHDCPKRRLKCEFCGCDFSGEAYESHEGMCPQESVYCENKCGARMMRRLLAQHATSECPKRTQPCTYCTKEFVFDTIQSHQYQCPRLPVACPNQCGVGTVAREDLPGHLKDSCNTALVLCPFKDSGCKHRCPKLAMARHVEESVKPHLAMMCALVSRQRQELQELRRELEELSVGSDGVLIWKIGSYGRRLQEAKAKPNLECFSPAFYTHKYGYKLQVSAFLNGNGSGEGTHLSLYIRVLPGAFDNLLEWPFARRVTFSLLDQSDPGLAKPQHVTETFHPDPNWKNFQKPGTWRGSLDESSLGFGYPKFISHQDIRKRNYVRDDAVFIRAAVELPRKILS
